# Assay results taken from the supplement of paper PMC10331698.
# ± gives the standard deviation of the averaged measurements. Most entries show no effect beyond the scatter of the controls.
# Tests used:
# Assay in all cases: level (log10 ratio to DMSO vehicle control); higher = higher biomarker level / cell amount than vehicle control
# [1] = compound: FC(F)C(F)(F)COCC1CO1 [((2,2,3,3-Tetrafluoropropoxy)methyl)oxirane]; conditions: 2200 nM; in DMSO
# Protocol: (§1)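 BioMAP Diversity Plus panel of 12 human primary cell co-culture systems (3C, 4H, LPS, SAg, BT, BF4T, BE3C, CASM3C, HDF3CGF, KF3CT, MyoF, Mphg). Compounds were added 1 h before stimulation and left for 24 h (MyoF 48 h; BT 72 h for soluble read-outs or 6 d for IgG). Biomarkers were read by ELISA, cytotoxicity by SRB, PBMC viability and proliferation by Alamar Blue. Each well value was divided by the mean of 8 DMSO control wells on the same plate and log10 transformed; duplicate blinded samples were tested at 4 concentrations.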
# [2] = compound: OCC(F)(F)C(F)(F)C(F)(F)C(F)(F)C(F)(F)C(F)(F)C(F)(F)C(F)(F)C(F)(F)C(F)(F)C(F)(F)F [11:1 Fluorotelomer alcohol]; conditions: in DMSO
# Protocol: as §1
# [3] = compound: O=C(O)C(F)(F)C(F)(F)C(F)(F)C(F)(F)C(F)(F)C(F)(F)C(F)(F)C(F)(F)C(F)(F)C(F)(F)F [Perfluoroundecanoic acid]; conditions: in DMSO
# Protocol: as §1
# [4] = compound: NC(=O)C(F)(F)C(F)(F)C(F)(F)C(F)(F)C(F)(F)C(F)(F)C(F)(F)F [Perfluorooctanamide]; conditions: 2200 nM; in DMSO
# Protocol: as §1
# [5] = compound: FC(F)(F)C(F)(F)C(F)(F)C(F)(F)C(F)(F)C(F)(F)C(F)(F)CCI [1-Iodo-1H,1H,2H,2H-perfluorononane]; conditions: in DMSO
# Protocol: as §1
# [6] = compound: O=C(O)C(F)(F)OC(F)(F)C(F)(F)OC(F)(F)C(F)(F)C(F)(F)C(F)(F)F [Perfluoro-3,6-dioxadecanoic acid]; conditions: 2200 nM; in DMSO
# Protocol: as §1
# [7] = compound: OCCC(F)(F)C(F)(F)C(F)(F)C(F)(F)C(F)(F)C(F)(F)C(F)(F)C(F)(F)F [8:2 Fluorotelomer alcohol]; conditions: 2200 nM; in DMSO
# Protocol: as §1
# [8] = compound: FC(F)(F)C(F)(F)C(F)(F)C(F)(F)C(F)(F)C(F)(F)C(F)(F)I [1-Iodopentadecafluoroheptane]; conditions: in DMSO
# Protocol: as §1
# [9] = compound: O=C(O)C(F)(F)C(F)(F)OC(F)(F)F [Perfluoro-3-methoxypropanoic acid]; conditions: 2200 nM; in DMSO
# Protocol: as §1
# [10] = compound: O=C(O)C(F)(F)C(F)(F)C(F)(F)F [Perfluorobutanoic acid]; conditions: 2200 nM; in DMSO
# Protocol: as §1
# [11] = compound: O=C(O)C=CC(F)(C(F)(F)F)C(F)(F)F [3-(Perfluoroisopropyl)-2-propenoic acid]; conditions: in DMSO
# Protocol: as §1
# [12] = compound: O=C(O)C(F)(F)C(F)(F)C(F)(F)C(F)(F)C(F)(F)C(F)(F)C(F)(F)C(F)F [9-H-Perfluorononanoic acid]; conditions: 2200 nM; in DMSO
# Protocol: as §1
# [13] = compound: O=S(=O)(Cl)C(F)(F)C(F)(F)C(F)(F)C(F)(F)C(F)(F)C(F)(F)C(F)(F)C(F)(F)F [Perfluoro-1-octanesulfonyl chloride]; conditions: 2200 nM; in DMSO
# Protocol: as §1
# [14] = compound: C=CC(=O)OCC(F)(F)C(F)(F)C(F)(F)C(F)(F)COC(=O)C=C [1H,1H,6H,6H-Perfluorohexane-1,6-diol diacrylate]; conditions: 2200 nM; in DMSO
# Protocol: as §1
# [15] = compound: C=C(C)C(=O)OCC(F)(F)C(F)(F)C(F)(F)F [2,2,3,3,4,4,4-Heptafluorobutyl methacrylate]; conditions: 2200 nM; in DMSO
# Protocol: as §1
# [16] = compound: O=C(O)C(F)(F)OC(F)(F)C(F)(F)OC(F)(F)C(=O)O [Perfluoro-3,6-dioxaoctane-1,8-dioic acid]; conditions: 2200 nM; in DMSO
# Protocol: as §1
# [17] = compound: O=C(O)C(F)(F)C(F)(F)F [Perfluoropropanoic acid]; conditions: 2200 nM; in DMSO
# Protocol: as §1
# [18] = compound: O=P(O)(O)CCC(F)(F)C(F)(F)C(F)(F)C(F)(F)C(F)(F)C(F)(F)C(F)(F)C(F)(F)F [((Perfluorooctyl)ethyl)phosphonic acid]; conditions: 2200 nM; in DMSO
# Protocol: as §1
Test System,level (log10) [1],level (log10) ([2]; 370 nM),level (log10) ([2]; 1100 nM),level (log10) ([2]; 3300 nM),level (log10) ([2]; 10000 nM),level (log10) ([3]; 740 nM),level (log10) ([3]; 2200 nM),level (log10) [4],level (log10) ([5]; 740 nM),level (log10) ([5]; 2200 nM),level (log10) ([5]; 6700 nM),level (log10) ([5]; 20000 nM),level (log10) [6],level (log10) [7],level (log10) ([8]; 740 nM),level (log10) ([8]; 2200 nM),level (log10) ([8]; 6700 nM),level (log10) ([8]; 20000 nM),level (log10) [9],level (log10) [10],level (log10) ([11]; 2200 nM),level (log10) ([11]; 6700 nM),level (log10) ([11]; 20000 nM),level (log10) ([11]; 60000 nM),level (log10) [12],level (log10) [13],level (log10) [14],level (log10) [15],level (log10) [16],level (log10) [17],level (log10) [18]
KF3CT:PAI-I,0.0065 ± 0.00071,-0.002 ± 0.0057,-0.002 ± 0.0071,-0.0055 ± 0.012,0.001 ± 0.023,0.003,-0.006 ± 0.018,-0.0035 ± 0.013,0.02 ± 0.014,0.004,0.0115 ± 0.022,0.017 ± 0.021,0.0025 ± 0.005,-0.0255 ± 0.018,-0.0045 ± 0.018,-0.02 ± 0.011,-0.0055 ± 0.04,-0.0275 ± 0.028,-0.023 ± 0.014,0.0015 ± 0.029,0.0155 ± 0.025,0.0045 ± 0.0092,0.023 ± 0.0085,0.0165 ± 0.0021,0.0125 ± 0.012,-0.007 ± 0.014,0.014 ± 0.0099,0.001 ± 0.018,-0.0175 ± 0.0035,0.047 ± 0.0085,-0.0175 ± 0.00071
BE3C:MMP-9,-0.0205 ± 0.015,-0.0215 ± 0.013,-0.0475 ± 0.029,-0.102 ± 0.0042,-0.0735 ± 0.019,-0.0885 ± 0.044,-0.043 ± 0.027,-0.0235 ± 0.032,0.0005 ± 0.047,-0.0045 ± 0.03,-0.0045 ± 0.013,-0.0045 ± 0.026,-0.008 ± 0.014,-0.0075 ± 0.029,-0.022 ± 0.0085,0.0005 ± 0.012,-0.014 ± 0.035,-0.0465 ± 0.015,0.015 ± 0.072,-0.0095 ± 0.042,0.017 ± 0.033,-0.018 ± 0.0042,-0.008 ± 0.0028,0.007 ± 0.04,-0.0135 ± 0.0092,-0.0095 ± 0.028,0.015 ± 0.0057,0.0105 ± 0.037,0.0145 ± 0.052,-0.0135 ± 0.036,0.0125 ± 0.03
BE3C:CD54/ICAM-1,-0.0025 ± 0.00071,-0.0185 ± 0.0035,-0.0245 ± 0.00071,-0.054 ± 0.0099,-0.025 ± 0.0028,-0.0145 ± 0.019,-0.0105 ± 0.037,0.0005 ± 0.013,0.004,-0.0035 ± 0.015,0.0115 ± 0.005,-0.009 ± 0.016,0.009 ± 0.0071,0.019 ± 0.038,-0.0045 ± 0.0064,-0.006 ± 0.016,-0.0125 ± 0.026,0.006 ± 0.013,0.0105 ± 0.0064,-0.0225 ± 0.021,-0.006 ± 0.035,0.002 ± 0.0057,-0.005,0.004 ± 0.0071,-0.025 ± 0.0099,0.004 ± 0.025,0.002 ± 0.0085,0.011 ± 0.031,0.0165 ± 0.0078,0.012 ± 0.0057,0 ± 0.0085
BE3C:CXCL10/IP-10,0.0015 ± 0.011,0.005 ± 0.034,-0.0345 ± 0.035,-0.0745 ± 0.03,-0.043 ± 0.0071,0.0225 ± 0.04,0.012 ± 0.02,0.016 ± 0.033,-0.008 ± 0.016,0.002 ± 0.013,0 ± 0.016,0.0025 ± 0.011,-0.0175 ± 0.011,-0.031 ± 0.04,0.0245 ± 0.046,0.0155 ± 0.037,0.01 ± 0.02,0.0195 ± 0.035,-0.0005 ± 0.0021,-0.006 ± 0.016,0.0045 ± 0.005,0.0055 ± 0.0035,0.004 ± 0.0099,0.009 ± 0.0014,0.0075 ± 0.0092,0.0005 ± 0.0035,-0.0075 ± 0.021,0.0305 ± 0.039,-0.001 ± 0.0099,0.0045 ± 0.0021,-0.0055 ± 0.0035
4H:CCL26/Eotaxin-3,0.035 ± 0.024,0.0105 ± 0.0064,0.0025 ± 0.0035,-0.0055 ± 0.0092,-0.0085 ± 0.0078,-0.006 ± 0.048,-0.0115 ± 0.04,0.002 ± 0.021,0.0345 ± 0.012,-0.003 ± 0.027,0.018 ± 0.0057,-0.004 ± 0.028,0.026 ± 0.023,0.0485 ± 0.079,0.022 ± 0.023,0.0305 ± 0.026,0.0365 ± 0.016,0.032 ± 0.027,-0.0095 ± 0.037,-0.024 ± 0.014,-0.005 ± 0.027,-0.011 ± 0.0014,-0.011 ± 0.0014,0.016 ± 0.0085,0.0145 ± 0.029,0.0235 ± 0.076,-0.0165 ± 0.021,-0.0075 ± 0.018,-0.014 ± 0.013,-0.004 ± 0.0014,0.015 ± 0.021
KF3CT:uPA,-0.001 ± 0.0028,-0.0025 ± 0.033,-0.0115 ± 0.015,-0.0335 ± 0.00071,-0.023 ± 0.016,-0.005 ± 0.0057,0.015 ± 0.014,-0.0215 ± 0.025,-0.0035 ± 0.00071,-0.0105 ± 0.0035,0.0025 ± 0.018,0.006 ± 0.016,-0.0135 ± 0.0092,0.0065 ± 0.0035,-0.013 ± 0.021,-0.0105 ± 0.018,-0.014 ± 0.013,0.0105 ± 0.044,-0.0015 ± 0.018,0.0015 ± 0.0035,0.006 ± 0.0057,0.0095 ± 0.0064,0.0045 ± 0.0078,0.004 ± 0.02,-0.004 ± 0.011,0.019 ± 0.024,-0.0235 ± 0.005,-0.0215 ± 0.0078,0.005 ± 0.0085,0.027 ± 0.0057,0.013 ± 0.021
MyoF:bFGF,0.0175 ± 0.013,-0.005 ± 0.0014,0.002 ± 0.0071,0.008 ± 0.014,0.004 ± 0.021,0.0035 ± 0.013,0.005 ± 0.034,0.0015 ± 0.00071,0.0015 ± 0.012,0.005 ± 0.0099,0.01 ± 0.0014,0.021 ± 0.017,0.0095 ± 0.0078,-0.0025 ± 0.016,0.0145 ± 0.0092,0.006 ± 0.0028,0.0165 ± 0.016,-0.0075 ± 0.015,0.012 ± 0.027,0.0045 ± 0.018,0.024 ± 0.033,0 ± 0.0028,0.006 ± 0.027,0.006 ± 0.017,-0.0035 ± 0.016,-0.0195 ± 0.005,-0.008 ± 0.0028,-0.0075 ± 0.0078,0.001 ± 0.03,-0.0135 ± 0.012,-0.008 ± 0.0057
